Test results published in US20140212423A1.
Results are given in words; binding and its absence hold for the method and conditions named. Some results given as binding are weak or reduced against the parent protein; the word gives no strength. Blank lines part the entries; values can stand above or below the binder they belong to.

How the values were obtained:
[1] = target: mouse Transferrin Receptor overexpressed on Hek 293 cells (mouse) (UniProt Q62351); experiment: MSD-ECL assay of Table 13
[2] = target: mouse Transferrin Receptor overexpressed on Hek 293 cells (mouse) (UniProt Q62351); experiment: 293/mTFR cell-based assay

- binding [1]: binds
B1: DVD2671 (bispecific antibody)
VH: EVQLLESGGGLVQPGGSLRLSCAASGFTFSNYGMSWVRQAPGKGLEWVASIRSGGGRTYYSDNVKGRFTISRDNSKNTLYLQMNSLRAEDTAVYYCVRYDHYSGSSDYWGQGTLVTVSSASTKGPSVFPLAPEVQLVESGGGLVQPGNSLTLSCVASGFTFSNYGMHWIRQAPKKGLEWIAMIYYDSSKMNYADTVKGRFTISRDNSKNTLYLEMNSLRSEDTAMYYCAVPTSHYVVDVWGQGVSVTVSS
VL: DVVMTQSPLSLPVTPGEPASISCKSSQSLLDSDGKTYLNWLLQKPGQSPQRLIYLVSKLDSGVPDRFSGSGSGTDFTLKISRVEAEDVGVYYCWQGTHFPRTFGQGTKVEIKRTVAAPDIQMTQSPASLSASLEEIVTITCQASQDIGNWLAWYQQKPGKSPQLLIYGATSLADGVPSRFSGSRSGTQFSLKISRVQVEDIGIYYCLQAYNTPWTFGGGTKLELK

- binding [2]: binds
B2: Aβ(3D6)-GS-AB403 (bispecific antibody)
VH: EVQLLESGGGLVQPGGSLRLSCAASGFTFSNYGMSWVRQAPGKGLEWVASIRSGGGRTYYSDNVKGRFTISRDNSKNTLYLQMNSLRAEDTAVYYCVRYDHYSGSSDYWGQGTLVTVSSGGGGSGGGGSEVQLVESGGGLVQPGGSLRLSCAASGFTFSNYGMHWIRQAPGKGLEWIAMIYYDSSKMNYADTVKGRFTISRDNAKNSLYLQMNSLRAEDTAVYYCAVPTSHYVVDVWGQGTTVTVSS
VL: DVVMTQSPLSLPVTPGEPASISCKSSQSLLDSDGKTYLNWLLQKPGQSPQRLIYLVSKLDSGVPDRFSGSGSGTDFTLKISRVEAEDVGVYYCWQGTHFPRTFGQGTKVEIKRGGSGGGGSGEIVMTQSPATLSVSPGERATLSCQASQDIGNWLAWYQQKPGQSPRLLIYGATSLADGVPARFSGSRSGTEFTLTISSLQSEDFAVYYCLQAYNTPWTFGGGTKVEIKR

- binding [2]: binds
B3: AB405-SL-Aβ(3D6) (bispecific antibody)
VH: QVQLVQSGAEVKKPGASVKVSCKASGFTFSNYGMHWIRQAPGQGLEWIAMIYYDSSKMNYADTVKGRFTITRDNSTNTLYMELSSLRSEDTAVYYCAVPTSHYVVDVWGQGTTVTVSSASTKGPEVQLLESGGGLVQPGGSLRLSCAASGFTFSNYGMSWVRQAPGKGLEWVASIRSGGGRTYYSDNVKGRFTISRDNSKNTLYLQMNSLRAEDTAVYYCVRYDHYSGSSDYWGQGTLVTVSS
VL: EIVMTQSPATLSVSPGERATLSCQASQDIGNWLAWYQQKPGQSPRLLIYGATSLADGVPARFSGSRSGTEFTLTISSLQSEDFAVYYCLQAYNTPWTFGGGTKVEIKRTVAAPSVFIFPPDVVMTQSPLSLPVTPGEPASISCKSSQSLLDSDGKTYLNWLLQKPGQSPQRLIYLVSKLDSGVPDRFSGSGSGTDFTLKISRVEAEDVGVYYCWQGTHFPRTFGQGTKVEIKR
